The supplement of paper PMC5949888
Most values lie at the floor of the assay. Slopes are relative: functional sequences can read slightly below zero.

Tested on: Saccharomyces cerevisiae PS128 hsf1 delta, HSF1(1-493) fusion
Assay: growth estimate (transactivation domain function in HSF1 fusion, heat-shock survival) (a.u. (slope of normalised read count over time)); higher = stronger growth at 37°C, i.e. more transactivation activity
Conditions: library: random library
Method: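 Random 60-nt DNA library encoding peptides of up to 20 aa, fused to the C-terminus of yeast HSF1 residues 1-493 (C-terminal TAD deleted) and expressed from the native HSF1 promoter on a CEN plasmid in hsf1-deleted S. cerevisiae PS128. Cells were selected at 37°C on -trp 5-FOA plates for 0, 2, 4, 6 and 8 days and amplicons were sequenced. Growth estimate is the slope of a robust linear fit of total-sum-normalised read counts (normalised to the first time point) over time, using at least 2 replicates. Sequences are classed functional (TAD activity) above a threshold of -0.13, set from stop-codon control sequences.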

| Substance | growth estimate |
| --- | --- |
| RPAGSPTKGRSTRAPGSICH | < -0.25 |
| TDYLKRMALRVNRSGSRALV | < -0.25 |
| RNQANL | < -0.25 |
| MGKGQCKGCTNRVLYYATTS | < -0.25 |
| CTCQVEL | < -0.25 |
| KARGARV | < -0.25 |
| ANRVRHTLVPVSR | < -0.25 |
| GEGQFCVSASGVQFFTKVSQ | < -0.25 |
| CWPSEAATGASPCGLYVTLS | < -0.25 |
| ISA | < -0.25 |
| TCPAQTGRVGARRGTVIKLA | < -0.25 |
| NWVLLIL | < -0.25 |
| AELQEFQLSNACQLEPYSAI | < -0.25 |
| LVLFYVQAARTFTVTAWVGL | < -0.25 |
| WRAVLHGRLTLRWAPSE | < -0.25 |
| AVGTRQSGRQLHCDT | < -0.25 |
| LCETAVTGVKHRLGDIVLES | < -0.25 |
| AQNACEAVTYKMRVFYAQGE | < -0.25 |
| AIITRGGIGG | < -0.25 |
| RRPAGLHGRIAG | < -0.25 |
| LAT | < -0.25 |
| FGSRFSRQEDFIRWCRAVHS | < -0.25 |
| FIGDEVK | < -0.25 |
| GTGPLSSCLYQWADSSNTAL | < -0.25 |

| Substance | growth estimate |
| --- | --- |
| DVDAGETSLQCI | < -0.25 |
| PQEYLKRGSGRLVA | < -0.25 |
| ISEGIAVPRFL | < -0.25 |
| RTSLCAFSRAFSSSLSRLNH | < -0.25 |
| SYIRVALYL | < -0.25 |
| GSYA | < -0.25 |
| HRL | < -0.25 |
| NMHFPRISSPCAWSRTCPRY | < -0.25 |
| FLWGRPRGRLAWGNIYPIPA | < -0.25 |
| TGIGKFVPGQLSLDNNSQYL | < -0.25 |
| SSRRKFI | < -0.25 |
| LSNGHQQAR | < -0.25 |
| YRIFGSTRKDEHSRGGMRPW | < -0.25 |
| SHGKERRRVCGKRGSWTGWW | -0.246 |
| ASKQSICKSAYERGKRHARE | < -0.25 |
| PEHRPKSSDHNCRGSALTGA | < -0.25 |
| ELCCDGEFASRHSFLHLVLR | < -0.25 |
| VLFSSSDLVWSTAQDKYLGI | -0.181 |
| TSTVRRYGDG | < -0.25 |
| WEDPVSDLQKAEGVALLHSL | < -0.25 |
| CGNYR | < -0.25 |
| THDSIVGARGYTVQSQLAYV | < -0.25 |
| IRSVPMLAQPKRQVICLQSS | < -0.25 |
| VPCGYDLGGPHGFLCEKDVV | < -0.25 |

| Substance | growth estimate |
| --- | --- |
| GAE | < -0.25 |
| LCTKCKILGSTRFIPRSVWS | < -0.25 |
| LGQLNLRPRVCC | < -0.25 |
| NRLAKRCLLRHSLCLLELP | < -0.25 |
| GQDFAGHTERVPVFCPYEQS | < -0.25 |
| GFHRGGAVEVRGNCNLALQG | < -0.25 |
| REIGAAGLPRSATRHG | -0.245 |
| TALRSRDSKSDRITGTDVGR | < -0.25 |
| FFK | < -0.25 |
| GVKMYCLNIISQPGNQSGRL | < -0.25 |
| EQPNN | < -0.25 |
| PDNGGVFRANTHPGILKVLL | < -0.25 |
| RGERVA | < -0.25 |
| SPVCFGSNEWKHKFSVTPAG | < -0.25 |
| TGRTDFFSQKTWTDRE | -0.248 |
| LPKSQCVCPPLGSPVGVLGI | < -0.25 |
| PRLMQKRSSLSGDMGATASR | < -0.25 |
| QAKGTPLGVDWRWK | < -0.25 |
| VQPPSGSE | < -0.25 |
| DGA | < -0.25 |
| VVLAPWRETQRKSLRNRRRA | -0.246 |
| QAVRQATFGAGEGSKAKCSW | < -0.25 |
| GVEKRLGVPARFYSRVLATG | < -0.25 |
| ASAWSWRDTVYSPPGE | < -0.25 |

| Substance | growth estimate |
| --- | --- |
| TKVYGCESLVTGCHFSPRPL | < -0.25 |
| LRKVHKHREATGQVSDGVHH | -0.246 |
| IPAKRFALSGLWFVLETQIG | < -0.25 |
| FALVESSTAG | < -0.25 |
| APEFTVC | < -0.25 |
| FQSHPVGWVKNEAQVNLTPG | < -0.25 |
| RKGRYCLRGTAFSGSLKWHG | < -0.25 |
| CEIAKRKRAGPVGGPPGNGP | < -0.25 |
| DPYRMVRTFWKFGFSCCSGK | < -0.25 |
| WVRRICGVRGNSKWISRHSA | < -0.25 |
| RASRASGEETPKLRYRVHLP | < -0.25 |
| GGAFNRLRGRSLRERCERYT | -0.25 |
| LHSNTQLIA | < -0.25 |
| QYLTRSSYVLITRYCLFQAT | < -0.25 |
| NGRLF | < -0.25 |
| NGLTYFGWARWRLCRPACMY | < -0.25 |
| WYAGSVCIGLGHRGGKIL | < -0.25 |
| SDSNLLVGATTIRGPEGVQR | < -0.25 |
| PPASHEIRSKALGA | < -0.25 |
| QSWGSSVSVVE | < -0.25 |
| GLLSRFCLRATVPTRSWRWA | < -0.25 |
| RSLHRAGNV | < -0.25 |
| QIIFSRKVY | < -0.25 |
| FKERDSDVTTHAIPLRGDPV | < -0.25 |

Individual results from the list.
growth estimate with IPAKRFALSGLWFVLETQIG is entered as < -0.25
growth estimate with WYAGSVCIGLGHRGGKIL is entered as < -0.25
growth estimate with FQSHPVGWVKNEAQVNLTPG is entered as < -0.25

Later entries

| Substance | growth estimate |
| --- | --- |
| KFIFGPPAPNMSRPPIIKVL | < -0.25 |
| SESPRIGLLQHNTALSSYGF | < -0.25 |
| GGVKDYLASRGRPSLKGRVK | < -0.25 |
| HKYPPH | < -0.25 |
| RDDSTRLSFSLSASEHEYLG | < -0.25 |
| LHR | < -0.25 |
| VSPLGLPRTTWGRVYG | < -0.25 |
| NRY | -0.245 |
| YPGQ | < -0.25 |
| VAGTSKLL | < -0.25 |
| VRDYPAYPS | < -0.25 |
| TLNGQRTQR | < -0.25 |
| AVYCFRITVE | < -0.25 |
| RELATPSTAA | < -0.25 |
| GMLD | < -0.25 |
| ICRCPGRDSVIKSRLSYSPT | < -0.25 |
| NNIH | -0.243 |
| SVYAKPNALISLSTSLRTRP | < -0.25 |
| REIHSFGAVVTVNGCRDIFP | < -0.25 |
| NSAHSKGACAQIPLVPG | < -0.25 |
| IAGENKGGKTRTGFQAEQPS | < -0.25 |
| GLYI | < -0.25 |
| GVNSMIRIGVCRNREILSHL | < -0.25 |
| HAYREMGRHRSRPSADTRPI | < -0.25 |

| Substance | growth estimate |
| --- | --- |
| STYISLTRRNGRCRRGRGAI | < -0.25 |
| ASMGR | < -0.25 |
| IHGEAKIGLGSTPRFPLKVF | -0.248 |
| SLQLLTEVPGGGPHPPASAA | < -0.25 |
| RQPTKIPA | < -0.25 |
| KCVDFMRLGVLVITFLIFLR | < -0.25 |
| SSCLW | < -0.25 |
| ALFGRNGKGLH | < -0.25 |
| ASGGVTRIKYKAH | < -0.25 |
| GRFNAGCNSCYIFSRVEIQP | < -0.25 |
| SQKGSSHHESIFSSEVQAVG | < -0.25 |
| VCMRNHVVLGARRSKVA | < -0.25 |
| LVKVIVIDQFISNTKMSVMG | < -0.25 |
| GYLTPFSMKRFVQRRIVTVL | < -0.25 |
| FLLGDQARTHMGLIRS | < -0.25 |
| YGQSPLTN | < -0.25 |
| VCGAAFIEVISNLDVARCPG | < -0.25 |
| QMGARRLCWRARLDLFVSFI | < -0.25 |
| RRVLATGLSEWHTCAESGCH | < -0.25 |
| LYSTDEGIYDVSKGTTTGAA | < -0.25 |
| YSCN | < -0.25 |
| VLPHWAPQENRWVLAPIATV | < -0.25 |
| TVQLCAASTYGQWCAKLYKE | < -0.25 |
| GVN | < -0.25 |

| Substance | growth estimate |
| --- | --- |
| GHYVPLNV | < -0.25 |
| VRTNLLNLLNGYKLDWIGRP | < -0.25 |
| APTGLLDRRAIR | < -0.25 |
| ARGQHGVQYGLYSLLTPPPA | < -0.25 |
| SVLVRGTEVPTSARIVRQAA | < -0.25 |
| VVMFLTLEDS | < -0.25 |
| TEEAL | -0.226 |
| NGRSGLTSVDQLSPLIKCAT | < -0.25 |
| DFG | < -0.25 |
| NPTSDLSAHA | < -0.25 |
| TISRCHRSRAIIMA | < -0.25 |
| VDVESNPYL | < -0.25 |
| PLHGL | < -0.25 |
| RVNIEVRLCGQAARYGRYQR | < -0.25 |
| RVTTGVNRNSVRFVG | < -0.25 |
| RGRLAWCCNSERHK | < -0.25 |
| DKSPRCLNDTCMHSVGTLPP | < -0.25 |
| GGSGHSLNHQGLH | < -0.25 |
| TARWFS | < -0.25 |
| GQHEDLVTGNMA | < -0.25 |
| AFGVIGADGEIYALG | < -0.25 |
| GISNQGSSE | < -0.25 |
| KVIMILEASYECLASGSDSM | < -0.25 |
| WLEMYNLAREVIGPTG | < -0.25 |

| Substance | growth estimate |
| --- | --- |
| TKIYENNSAWLLQKLATQTH | < -0.25 |
| VHLHMAFAR | < -0.25 |
| VGCQDRDRFQSHYVAQSQSR | < -0.25 |
| VAGGQSGYEYITPACRIVQI | < -0.25 |
| REGYARNCSETPRR | < -0.25 |
| SCHIPFTMALQKSGFPRVRE | < -0.25 |
| YAYFGLTPATKETFRISEIN | < -0.25 |
| MRQLGSLMDVSSG | < -0.25 |
| TPSSHIIFSENHSPNMFLVA | < -0.25 |
| YWFLLPGALRCFLLAVQLSQ | < -0.25 |
| PVAEDDRQDGQISA | < -0.25 |
| SEVCLSPGK | < -0.25 |
| SKR | < -0.25 |
| KLLGGVSNPDTHDTFSPGPM | < -0.25 |
| MWRLFVSAKRFDGGELYTVR | < -0.25 |
| MKYWRIISLGENQAGVVFSA | < -0.25 |
| SRDTHRACSRTTKDVAWIPP | < -0.25 |
| ARGSRSTPLPRACLWILCVG | < -0.25 |
| LDDAGQVPPRHHLGYSELAP | < -0.25 |
| GKLGIIGYVRCITCFGAGGQ | < -0.25 |
| GGSSVCCNSPSAERRGESHL | < -0.25 |
